# Assay results as given in the supplement of paper PMC12819154, “High-throughput peptide-centric local stability assay extends protein–ligand identification to membrane proteins, tissues and bacteria” (Nature Structural & Molecular Biology, 2025).
# Sequences of proteins named here, by UniProt entry; tags and fusion partners are left off. A change or cut given only in a name is not applied to a line headed by its entry.
# UniProt Q14168: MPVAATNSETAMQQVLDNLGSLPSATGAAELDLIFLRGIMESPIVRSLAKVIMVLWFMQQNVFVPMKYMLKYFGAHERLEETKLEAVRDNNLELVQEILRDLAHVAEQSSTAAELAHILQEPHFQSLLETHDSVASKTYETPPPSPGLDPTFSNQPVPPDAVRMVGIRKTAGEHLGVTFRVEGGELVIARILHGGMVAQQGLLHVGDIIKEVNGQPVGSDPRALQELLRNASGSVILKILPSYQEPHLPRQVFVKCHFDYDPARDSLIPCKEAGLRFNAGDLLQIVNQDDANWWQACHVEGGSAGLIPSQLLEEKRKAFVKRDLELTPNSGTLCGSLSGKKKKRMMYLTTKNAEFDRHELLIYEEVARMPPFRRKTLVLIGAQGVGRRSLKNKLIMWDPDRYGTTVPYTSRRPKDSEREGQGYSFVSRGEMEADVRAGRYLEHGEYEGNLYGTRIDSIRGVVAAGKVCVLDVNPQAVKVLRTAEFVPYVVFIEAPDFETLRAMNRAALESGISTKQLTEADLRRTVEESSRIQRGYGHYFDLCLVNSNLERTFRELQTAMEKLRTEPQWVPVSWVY
# UniProt Q13620, whole entry: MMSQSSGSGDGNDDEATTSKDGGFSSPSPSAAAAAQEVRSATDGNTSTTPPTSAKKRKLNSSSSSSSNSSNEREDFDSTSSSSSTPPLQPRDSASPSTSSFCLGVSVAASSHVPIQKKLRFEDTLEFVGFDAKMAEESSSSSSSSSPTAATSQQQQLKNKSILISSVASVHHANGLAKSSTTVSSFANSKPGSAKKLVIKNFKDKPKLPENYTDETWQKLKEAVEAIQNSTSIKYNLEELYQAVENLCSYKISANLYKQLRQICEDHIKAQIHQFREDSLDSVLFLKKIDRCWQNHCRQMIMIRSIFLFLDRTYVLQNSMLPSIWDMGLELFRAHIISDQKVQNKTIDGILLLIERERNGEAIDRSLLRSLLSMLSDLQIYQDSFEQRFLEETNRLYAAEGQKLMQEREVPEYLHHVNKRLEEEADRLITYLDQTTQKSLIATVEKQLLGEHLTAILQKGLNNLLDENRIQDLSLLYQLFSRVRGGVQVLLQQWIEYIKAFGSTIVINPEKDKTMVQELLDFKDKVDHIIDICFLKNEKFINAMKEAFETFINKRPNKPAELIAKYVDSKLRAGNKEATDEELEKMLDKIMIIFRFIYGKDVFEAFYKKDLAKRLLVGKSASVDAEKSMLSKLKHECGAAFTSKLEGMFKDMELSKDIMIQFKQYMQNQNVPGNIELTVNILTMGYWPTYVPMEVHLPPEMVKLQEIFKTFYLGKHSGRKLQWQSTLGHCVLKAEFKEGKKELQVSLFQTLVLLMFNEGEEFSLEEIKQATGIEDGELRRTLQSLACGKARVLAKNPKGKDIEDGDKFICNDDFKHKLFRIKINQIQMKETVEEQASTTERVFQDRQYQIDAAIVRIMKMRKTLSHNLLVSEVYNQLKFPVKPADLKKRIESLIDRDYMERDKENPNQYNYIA
# UniProt Q13496: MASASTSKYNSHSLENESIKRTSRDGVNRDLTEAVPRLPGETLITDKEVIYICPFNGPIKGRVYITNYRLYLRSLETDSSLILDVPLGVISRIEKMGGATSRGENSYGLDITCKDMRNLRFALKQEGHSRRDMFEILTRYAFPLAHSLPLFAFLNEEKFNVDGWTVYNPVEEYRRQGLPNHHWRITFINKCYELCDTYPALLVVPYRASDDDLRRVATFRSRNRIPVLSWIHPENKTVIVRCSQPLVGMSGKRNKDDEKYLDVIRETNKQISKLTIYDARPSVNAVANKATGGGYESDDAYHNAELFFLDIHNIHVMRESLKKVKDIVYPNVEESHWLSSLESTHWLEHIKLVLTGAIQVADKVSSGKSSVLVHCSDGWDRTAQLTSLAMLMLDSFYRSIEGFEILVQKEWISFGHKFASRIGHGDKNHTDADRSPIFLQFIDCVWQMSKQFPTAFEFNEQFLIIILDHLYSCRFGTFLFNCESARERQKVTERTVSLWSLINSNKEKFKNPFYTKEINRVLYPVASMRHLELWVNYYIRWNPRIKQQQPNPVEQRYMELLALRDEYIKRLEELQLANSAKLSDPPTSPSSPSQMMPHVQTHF
# UniProt Q14444, whole entry: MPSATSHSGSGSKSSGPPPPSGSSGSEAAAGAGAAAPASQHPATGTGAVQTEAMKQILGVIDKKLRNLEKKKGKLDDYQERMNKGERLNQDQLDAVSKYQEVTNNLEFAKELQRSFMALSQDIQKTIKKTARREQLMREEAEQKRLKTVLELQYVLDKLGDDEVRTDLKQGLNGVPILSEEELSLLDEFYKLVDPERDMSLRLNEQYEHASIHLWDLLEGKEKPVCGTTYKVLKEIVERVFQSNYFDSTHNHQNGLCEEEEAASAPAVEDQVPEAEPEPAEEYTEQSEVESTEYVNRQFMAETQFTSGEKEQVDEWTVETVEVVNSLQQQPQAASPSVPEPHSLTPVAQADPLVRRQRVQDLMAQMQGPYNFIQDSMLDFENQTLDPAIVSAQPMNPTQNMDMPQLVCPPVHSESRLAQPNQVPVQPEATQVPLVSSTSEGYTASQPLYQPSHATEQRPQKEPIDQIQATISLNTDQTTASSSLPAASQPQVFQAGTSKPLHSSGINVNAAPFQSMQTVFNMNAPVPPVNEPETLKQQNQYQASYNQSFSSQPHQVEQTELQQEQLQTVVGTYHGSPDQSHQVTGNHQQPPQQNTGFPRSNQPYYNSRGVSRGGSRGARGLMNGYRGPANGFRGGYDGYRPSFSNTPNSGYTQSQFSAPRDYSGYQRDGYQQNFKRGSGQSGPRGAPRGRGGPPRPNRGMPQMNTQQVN
# UniProt Q14789: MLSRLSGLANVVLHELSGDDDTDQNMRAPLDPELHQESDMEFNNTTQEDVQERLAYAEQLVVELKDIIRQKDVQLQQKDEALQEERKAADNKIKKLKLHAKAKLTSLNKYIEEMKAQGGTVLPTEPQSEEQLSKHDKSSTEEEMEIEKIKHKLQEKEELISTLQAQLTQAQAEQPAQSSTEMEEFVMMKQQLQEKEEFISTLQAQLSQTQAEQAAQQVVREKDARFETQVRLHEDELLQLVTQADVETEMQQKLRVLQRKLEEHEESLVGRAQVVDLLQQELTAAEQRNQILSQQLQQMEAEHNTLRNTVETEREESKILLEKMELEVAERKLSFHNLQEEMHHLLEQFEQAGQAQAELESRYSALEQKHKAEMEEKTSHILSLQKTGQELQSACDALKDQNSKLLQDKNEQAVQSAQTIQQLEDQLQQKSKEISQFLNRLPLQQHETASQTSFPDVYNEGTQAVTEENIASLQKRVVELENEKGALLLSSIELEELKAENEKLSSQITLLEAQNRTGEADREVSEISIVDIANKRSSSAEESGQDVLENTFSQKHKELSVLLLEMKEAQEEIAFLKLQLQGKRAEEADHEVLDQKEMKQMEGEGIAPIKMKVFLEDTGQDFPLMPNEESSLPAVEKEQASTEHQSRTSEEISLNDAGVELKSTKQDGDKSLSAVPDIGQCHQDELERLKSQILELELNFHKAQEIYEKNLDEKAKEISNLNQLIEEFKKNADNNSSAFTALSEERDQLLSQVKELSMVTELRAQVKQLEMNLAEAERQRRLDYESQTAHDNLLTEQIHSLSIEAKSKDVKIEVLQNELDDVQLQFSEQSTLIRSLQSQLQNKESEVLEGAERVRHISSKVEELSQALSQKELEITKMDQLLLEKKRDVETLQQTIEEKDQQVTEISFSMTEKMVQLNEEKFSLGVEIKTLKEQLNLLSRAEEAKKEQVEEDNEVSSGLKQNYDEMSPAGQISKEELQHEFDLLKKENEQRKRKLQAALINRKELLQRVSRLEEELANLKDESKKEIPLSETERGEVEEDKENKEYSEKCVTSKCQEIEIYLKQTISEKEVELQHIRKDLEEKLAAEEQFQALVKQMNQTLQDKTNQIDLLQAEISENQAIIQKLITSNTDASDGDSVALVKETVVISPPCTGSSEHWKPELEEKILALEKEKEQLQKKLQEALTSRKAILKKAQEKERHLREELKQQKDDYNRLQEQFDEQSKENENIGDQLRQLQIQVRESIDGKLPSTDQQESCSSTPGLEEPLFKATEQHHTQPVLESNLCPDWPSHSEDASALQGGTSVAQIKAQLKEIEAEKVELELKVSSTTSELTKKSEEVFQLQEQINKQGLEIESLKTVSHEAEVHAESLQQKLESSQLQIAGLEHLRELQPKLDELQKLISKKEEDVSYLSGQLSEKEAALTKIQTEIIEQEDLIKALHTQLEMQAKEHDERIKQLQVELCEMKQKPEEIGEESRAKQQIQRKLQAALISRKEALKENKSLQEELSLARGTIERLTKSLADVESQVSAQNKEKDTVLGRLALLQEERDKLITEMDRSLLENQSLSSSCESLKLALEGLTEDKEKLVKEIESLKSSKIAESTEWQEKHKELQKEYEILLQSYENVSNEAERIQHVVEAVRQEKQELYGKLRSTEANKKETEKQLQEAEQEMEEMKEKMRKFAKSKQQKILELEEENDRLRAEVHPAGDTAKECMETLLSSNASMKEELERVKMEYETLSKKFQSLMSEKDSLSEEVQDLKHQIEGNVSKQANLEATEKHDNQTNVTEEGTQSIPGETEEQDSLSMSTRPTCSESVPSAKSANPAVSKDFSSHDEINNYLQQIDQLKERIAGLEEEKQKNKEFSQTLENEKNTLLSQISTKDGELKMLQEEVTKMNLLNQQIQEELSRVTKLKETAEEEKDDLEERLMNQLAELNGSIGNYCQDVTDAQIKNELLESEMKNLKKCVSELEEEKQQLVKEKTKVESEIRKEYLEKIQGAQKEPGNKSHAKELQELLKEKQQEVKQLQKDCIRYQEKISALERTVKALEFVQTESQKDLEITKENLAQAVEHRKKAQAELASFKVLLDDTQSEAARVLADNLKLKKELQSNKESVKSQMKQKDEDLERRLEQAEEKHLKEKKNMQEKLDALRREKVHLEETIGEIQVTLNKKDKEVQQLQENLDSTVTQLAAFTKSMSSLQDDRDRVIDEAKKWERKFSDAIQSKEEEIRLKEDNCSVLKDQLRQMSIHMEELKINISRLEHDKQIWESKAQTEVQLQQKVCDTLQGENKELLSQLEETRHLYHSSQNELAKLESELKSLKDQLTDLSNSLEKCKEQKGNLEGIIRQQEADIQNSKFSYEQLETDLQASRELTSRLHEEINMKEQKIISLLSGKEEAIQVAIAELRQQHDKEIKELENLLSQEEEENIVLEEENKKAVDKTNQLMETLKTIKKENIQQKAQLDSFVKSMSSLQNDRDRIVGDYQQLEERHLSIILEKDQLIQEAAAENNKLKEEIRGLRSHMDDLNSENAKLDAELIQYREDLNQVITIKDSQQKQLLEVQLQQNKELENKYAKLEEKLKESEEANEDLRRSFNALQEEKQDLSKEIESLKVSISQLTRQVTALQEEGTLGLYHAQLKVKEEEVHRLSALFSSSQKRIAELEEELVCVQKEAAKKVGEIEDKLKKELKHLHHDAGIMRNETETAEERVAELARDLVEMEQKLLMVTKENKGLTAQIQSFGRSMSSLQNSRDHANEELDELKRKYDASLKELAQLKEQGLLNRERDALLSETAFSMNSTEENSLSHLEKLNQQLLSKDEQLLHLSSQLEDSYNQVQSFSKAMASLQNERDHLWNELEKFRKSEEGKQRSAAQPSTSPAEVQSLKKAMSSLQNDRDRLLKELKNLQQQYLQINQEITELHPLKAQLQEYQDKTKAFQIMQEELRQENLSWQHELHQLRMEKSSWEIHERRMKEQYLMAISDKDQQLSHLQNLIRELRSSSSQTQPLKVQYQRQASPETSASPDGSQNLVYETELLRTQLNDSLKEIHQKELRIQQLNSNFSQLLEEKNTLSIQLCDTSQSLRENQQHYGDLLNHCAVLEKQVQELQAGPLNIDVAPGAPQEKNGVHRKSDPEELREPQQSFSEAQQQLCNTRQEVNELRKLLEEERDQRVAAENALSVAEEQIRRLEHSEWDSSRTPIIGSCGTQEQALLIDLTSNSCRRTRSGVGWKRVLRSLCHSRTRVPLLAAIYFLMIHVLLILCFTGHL
# UniProt Q14153: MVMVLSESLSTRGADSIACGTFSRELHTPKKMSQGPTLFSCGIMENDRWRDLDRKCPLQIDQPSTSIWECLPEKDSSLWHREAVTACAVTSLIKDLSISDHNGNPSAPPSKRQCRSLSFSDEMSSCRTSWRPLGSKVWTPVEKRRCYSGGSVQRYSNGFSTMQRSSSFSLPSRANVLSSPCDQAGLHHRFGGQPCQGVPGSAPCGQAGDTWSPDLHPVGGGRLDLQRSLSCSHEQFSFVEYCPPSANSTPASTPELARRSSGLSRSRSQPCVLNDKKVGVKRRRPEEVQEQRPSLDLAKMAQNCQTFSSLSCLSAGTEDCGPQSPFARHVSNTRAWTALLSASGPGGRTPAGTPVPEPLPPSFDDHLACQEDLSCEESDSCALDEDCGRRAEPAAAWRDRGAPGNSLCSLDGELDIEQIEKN
# Some of the results follow. Most entries show no effect beyond the scatter of the controls.
# Compound: CN[C@@H]1C[C@H]2O[C@@](C)([C@@H]1OC)n1c3ccccc3c3c4c(c5c6ccccc6n2c5c31)C(=O)NC4 [staurosporine]
# Experiment: log2 fold change of tryptic peptide abundance, ligand vs vehicle (limited proteolysis) (log2 ratio); higher = more trypsin-susceptible (destabilized)
# Details: ligand concentration: 20 uM; sample: K562 cleared lysate; digestion: 4 min, 22 C (HT-PELSA RT4min, Orbitrap Astral)
row,Target,log2 fold change
1,"MPP2 (peptide sequence: TLVLIGAQGVGR, peptide start residue: 340) (UniProt Q14168)",0.304
2,"UniProt Q13258 (peptide sequence: NLYAMHRR, peptide start residue: 224)",0.109
3,"LBR (peptide sequence: FADGEVVR, peptide start residue: 6) (UniProt Q14739)",0.289
4,"UniProt Q13620 (peptide sequence: QLLGEHLTAILQK, peptide start residue: 447)",-0.263
5,"FAM50A (peptide sequence: SAGVEQLMYIK, peptide start residue: 243) (UniProt Q14320)",0.582
6,"MEF2D (peptide sequence: LDTWTLK, peptide start residue: 515) (UniProt Q14814)",-0.199
7,"GTF2H3 (peptide sequence: AACFCHR, peptide start residue: 253) (UniProt Q13889)",-0.205
8,"SLBP (peptide sequence: LLINDFGR, peptide start residue: 99) (UniProt Q14493)",-0.0775
9,"PLD1 (peptide sequence: IAADMSNIIENLDTR, peptide start residue: 17) (UniProt Q13393)",-0.442
10,"FASTKD3 (peptide sequence: IGLTNLLGAR, peptide start residue: 542) (UniProt Q14CZ7)",0.52
11,"DRAP1 (peptide sequence: ALELFLESLLKK, peptide start residue: 41) (UniProt Q14919)",0.168
12,"UniProt Q147U1 (peptide sequence: THTGEKPYECK, peptide start residue: 272)",-0.142
13,"ENDOG (peptide sequence: YGLPGLAQLK, peptide start residue: 67) (UniProt Q14249)",0.101
14,"NFIX (peptide sequence: SITSPPSTSTTK, peptide start residue: 265) (UniProt Q14938)",0.00219
15,"EIF3I (peptide sequence: MKPILLQGHER, peptide start residue: 1) (UniProt Q13347)",0.201
16,"MTM1 (peptide sequence: YNSHSLENESIKR, peptide start residue: 9) (UniProt Q13496)",-0.151
17,"UniProt Q147X3 (peptide sequence: YYLNGVDALR, peptide start residue: 347)",0.364
18,"GSE1 (peptide sequence: MDDSYCLSALR, peptide start residue: 267) (UniProt Q14687)",-0.172
19,"SQLE (peptide sequence: SPPESENKEQLEAR, peptide start residue: 83) (UniProt Q14534)",0.392
20,"CLINT1 (peptide sequence: NKDKYVGVSSDSVGGFR, peptide start residue: 155) (UniProt Q14677)",-0.107
21,"UniProt Q14444 (peptide sequence: LDDYQER, peptide start residue: 75)",-0.0972
22,"GOLGB1 (peptide sequence: GLTAQIQSFGR, peptide start residue: 2728) (UniProt Q14789)",-0.366
23,"FAM53B (peptide sequence: RAEPAAAWR, peptide start residue: 390) (UniProt Q14153)",0.403
24,"UniProt Q14050 (peptide sequence: GPTGELGDPGPR, peptide start residue: 584)",-0.279
25,"DDX39B (peptide sequence: NCPHIVVGTPGR, peptide start residue: 164) (UniProt Q13838)",0.391
26,"WTAP (peptide sequence: DKLEQAQNELSAWK, peptide start residue: 133) (UniProt Q15007)",0.582
27,"UBE4A (peptide sequence: ELNDEER, peptide start residue: 469) (UniProt Q14139)",-0.356
28,"RBM39 (peptide sequence: VLGVPIIVQASQAEKNR, peptide start residue: 218) (UniProt Q14498)",0.554
29,"COTL1 (peptide sequence: KELEEDFIKSELK, peptide start residue: 118) (UniProt Q14019)",-0.64

# Some of the entries so far, as tab-separated lines.
row	Target	log2 fold change
5	FAM50A (peptide sequence: SAGVEQLMYIK, peptide start residue: 243) (UniProt Q14320)	0.582
6	MEF2D (peptide sequence: LDTWTLK, peptide start residue: 515) (UniProt Q14814)	-0.199
